# Laboratory results taken from PubChem BioAssay AID504467 (National Center for Advancing Translational Sciences (NCATS), 2011).
# The campaign covered roughly 330,000 compounds. About 7,700 (2.3%) were called active. Inconclusive means that the source gave no clear call. Such entries were picked first, then a sample of the others. The call rests on the fitted dose curve; in most records, active means well fitted inhibition curve with a large enough effect; inconclusive means small, poorly fitted or top-dose-only effect, or effect the other way; inactive means flat fitted curve, though single readings scatter. Potencies of inconclusive entries are doubtful fits and often do not repeat.
# Experiment: qHTS screen for small molecules that inhibit ELG1-dependent DNA repair in human embryonic kidney (HEK293T) cells expressing luciferase-tagged ELG1; further: nearly all actives have a fitted effect of over 55% in size
# Details: HEK293T ELG1-luciferase reporter, luminescence, 16 h, DNA damage induced by 5-fluorouridine; activity change, negative = inhibition: at 46.1 µM (top of the series)
# Method in brief: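 In this reporter screen, reduction of luminescence relative to DMSO vehicle indicated activity. Compounds and 5-fluorouridine were added together to 2,000 cells per well, incubated for 16 hr at 37 °C, then developed with ONE-Glo.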
# On the % scale 0 is the no-effect control and ±100 the full control effect; potency means the concentration at half of the fitted maximal effect.
SMILES,Potency,"activity change, negative = inhibition"
C=CCNC(=O)c1c(Cl)nc(C)c([N+](=O)[O-])c1C,"inconclusive: 6.51 µM [activator, partial curve, poor fit]",
CCN(C[C@H]1N[C@@](C)(C(=O)OC)[C@H]2C(=O)N(Cc3ccccc3)C(=O)[C@@H]12)C(=O)Nc1ccc(Cl)cc1,,inactive: 0.108%
N#C/C(=C1/C(=O)Nc2ccc(Br)cc21)c1ccccn1,,inactive: 2.06%
Cc1ccc(C2c3[nH]c4ccccc4c3C[C@H]3C(=O)N(c4ccccc4C(=O)NCCCN4CCOCC4)C(=O)N23)cc1 (some centres not stated),"inconclusive: 1.64 µM [inhibitor, partial curve, poor fit]",
c1ccc(CNc2ncnc3c2cnn3-c2ccccc2)cc1,"inconclusive: 25.9 µM [activator, single point]",
CCOC(=O)N1CCN(Cc2nc3cc(NC(=O)c4cccs4)ccc3n2CC)CC1,,inactive: -14.5%
Cc1cc(C)c(S(=O)(=O)/N=C2\C=C(NS(=O)(=O)c3ccccc3)C(=O)c3ccccc32)c(C)c1,,inactive: -6.22%
CC(C)(C)NC(=O)CSc1ncccc1-c1nc2ccccc2[nH]1,"inconclusive: 13 µM [activator, single point]",
CC(=O)CSc1nc2ccc(Nc3nc(N4CCOCC4)nc(N4CCOCC4)n3)cc2s1,"inconclusive: 5.8 µM [inhibitor, partial curve]",
COC(=O)c1ccccc1NC(=O)COc1ccccc1[N+](=O)[O-],"inconclusive: 29.1 µM [activator, single point]",
O=c1c2cc(Br)ccc2nc(-c2cccc(C(F)(F)F)c2)n1O,"inconclusive: 29.1 µM [inhibitor, partial curve, poor fit]",
CC(C)(C)C(=O)c1cn(CC(=O)O)c2ccccc12,"inconclusive: 29.1 µM [inhibitor, single point]",
CCNc1nc(NCC)nc(OCCOC(=O)Nc2ccccc2)n1,,inactive: -9.5%
Cn1c(SCc2ccccc2)nnc1-c1ccc2c(c1)OCO2,"inconclusive: 18.4 µM [activator, partial curve]",
COc1ccc(-c2cc(=O)oc3c(C)c(OCC(=O)NCC4CCC(C(=O)O)CC4)ccc23)cc1 (configuration not stated),"inconclusive: 0.0206 µM [activator, partial curve, poor fit]",
COc1ccc(C(=O)NC2CCN(CC(=O)N3CCCCC3)CC2)cc1,,inactive: 9.25%
COc1cc(NC(=O)c2cccc(Cl)c2)ccc1NC(=O)c1cccs1,"inconclusive: 29.1 µM [inhibitor, single point]",
COC(=O)CN(C)C(=O)c1ccc(OC)c(OC2CCN(C(C)C)CC2)c1,,inactive: 17.4%
O=C1Cc2cc(NS(=O)(=O)c3cc(F)ccc3F)cc3c2N1CCC3,"inconclusive: 5.17 µM [activator, single point]",
Cc1ccc(-c2c[n+](CC(=O)Nc3nc(-c4ccccc4)cs3)c3n2CCC3)cc1,,inactive: -5.93%
CCc1ccc(NC(=O)CSc2ccc(-c3ccco3)nn2)cc1,"inconclusive: 16.4 µM [inhibitor, single point]",
COc1ccc(-c2ccc([C@H]3[C@H]4C=CC[C@@H](C)[C@@H]4C(=O)N3Cc3ccccc3)c(F)c2)cc1OC,"inconclusive: 23.1 µM [inhibitor, partial curve]",
CNC(C)C#Cc1ccc2c(=O)c3c(OC)cccc3oc2c1 (configuration not stated),"inconclusive: 4.61 µM [activator, partial curve]",
CC(C)(C)C(=O)N(Cc1ccc(Cl)cc1)c1cnccn1,"inconclusive: 16.4 µM [inhibitor, single point]",

SMILES,Potency,"activity change, negative = inhibition"
Cc1ccc2c(C)c(C(=O)N(Cc3ccc(N(C)C)cc3)C3CCS(=O)(=O)C3)oc2c1 (configuration not stated),active: 16.4 µM,
O=C1N=C(N2CCCCC2)S/C1=C/C1=Cc2ccccc2OC1,"inconclusive: 20.6 µM [activator, single point]",
CCOC(=O)c1sc(-c2ccccc2)cc1NC(=O)c1ccc(S(=O)(=O)N(CCOC)CCOC)cc1,"inconclusive: 6.51 µM [inhibitor, partial curve, poor fit]",
Cc1ccc(NC(=O)c2ccc(=O)[nH]c2)cc1S(=O)(=O)N1CCCCCC1,active: 16.4 µM,
Cc1nc(-c2ccccc2)cs1,,inactive: -2.15%
O=C(c1ccc(OC2CCN(Cc3ccccn3)CC2)cc1)N1CCCCO1,,inactive: 15.5%
CCC/C(=N/NC(=O)c1ccccc1Cl)c1ccccc1,,inactive: 6.91%
COc1cc(C)ccc1OCCCOc1ccccc1Br,"inconclusive: 20.6 µM [activator, single point]",
O=C(c1ccco1)N1CCN(c2ccccc2F)CC1,"inconclusive: 29.1 µM [activator, single point]",
CS(=O)(=O)c1ccccc1-c1nnc(-c2ccc(Cl)cc2)o1,,inactive: 12.8%
O=C(COc1ccc(Cl)cc1Br)Nc1nnc(C2CC2)s1,"inconclusive: 23.1 µM [activator, single point]",
C/C(=N\Nc1cccc(C(=O)O)c1)c1cc2ccccc2o1,"inconclusive: 18.3 µM [activator, partial curve]",
CC(=O)Nc1ccc2nc(NC(=O)c3ccc([N+](=O)[O-])s3)sc2c1,,inactive: -7.87%
c1ccc(CCn2nnc3ccccc32)cc1,"inconclusive: 14.6 µM [activator, partial curve]",
Cc1ccc(CNC(=O)c2cc(=O)c3ccc(C)cc3o2)cc1,,inactive: -14.4%
O=S(=O)(NCc1ccccc1)NCc1cccc(C(F)(F)F)c1,,inactive: 1.98%
CC1(C(=O)NCCc2c[nH]c3ccccc23)C=CCN1C(=O)c1ccccc1 (configuration not stated),,inactive: 15.2%
C/C=C(/C)C(=O)Nc1cccc(C2=NOC3(C2)C[C@H](C(N)=O)N(C(=O)c2ccc(Cl)cc2)C3)c1 (some centres not stated),"inconclusive: 14.6 µM [inhibitor, single point]",
Cc1ccc2oc(C(=O)N(C)Cc3ccon3)c(C)c2c1,"inconclusive: 20.6 µM [activator, partial curve]",
NS(=O)(=O)c1cc(C(=O)N2CCNC(=O)C2)ccc1Cl,"inconclusive: 29.1 µM [activator, single point]",
Cc1ccc(OCC(=O)N2CCN(C(=O)c3ccc([N+](=O)[O-])cc3)CC2)cc1,"inconclusive: 8.2 µM [inhibitor, partial curve, poor fit]",
CC(C)C(NC(=O)c1ccccc1)C(=O)OCC(=O)N1CCCCC1 (configuration not stated),,inactive: -2.32%
COc1ccccc1NC(=O)c1ccc(CSc2ncccn2)cc1,,inactive: 17.4%
CC(C)Nc1nc(NNc2nc(Cl)nc(NC(C)(C)C)n2)nc(NC(C)C)n1,,inactive: -5.71%

SMILES,Potency,"activity change, negative = inhibition"
CCCOc1cccc(C(=O)N(Cc2cccs2)C2CCS(=O)(=O)C2)c1 (configuration not stated),"inconclusive: 32.6 µM [inhibitor, partial curve, poor fit]",
Cc1cccc(N2CCN(C(=O)c3ccncc3)CC2)c1C,"inconclusive: 7.31 µM [inhibitor, partial curve, poor fit]",
Cc1cc(F)ccc1S(=O)(=O)N1CCCOC1CNC(=O)C(=O)NC1CCCC1 (configuration not stated),,inactive: -1.32%
CNc1ccc2c3c(cccc13)C(=O)N(C)C2=O,,inactive: -16.5%
NCCCCC(NC(=O)C1CCCN1C(=O)C1CSSCC(N)C(=O)NC(Cc2ccc(O)cc2)C(=O)NC(Cc2ccccc2)C(=O)NC(CCC(N)=O)C(=O)NC(CC(N)=O)C(=O)N1)C(=O)NCC(N)=O (configuration not stated),,inactive: 1.02%
COC(=O)c1cc2cc(OC)ccc2n1C,"inconclusive: 23.1 µM [activator, single point]",
N/C(=N\OC(=O)N1CCOCC1)c1ccc(Br)cc1,"inconclusive: 4.11 µM [inhibitor, single point]",
C/C(=N\NC(=O)CSCc1ccc(Cl)cc1)c1ccc(NC(=O)c2ccccc2)cc1,"inconclusive: 20.6 µM [activator, single point]",
O=C(N/N=C/c1ccc(Cl)cc1Cl)c1n[nH]c2c1CCCC2,"inconclusive: 18.4 µM [activator, partial curve]",
COc1ccccc1NC(=O)Cc1nnc(SCC(=O)Nc2nccs2)n1C,,inactive: -2.07%
O=C(c1ccccc1Sc1ccc([N+](=O)[O-])cc1Cl)N1CCOCC1,,inactive: -3.48%
O=C(CN1C(=O)NC(Cc2c[nH]c3ccccc23)C1=O)Nc1ccc(F)c(F)c1F (configuration not stated),,inactive: 0.185%
Cc1ccc(-n2cc3ccc([N+](=O)[O-])cc3n2)cc1,"inconclusive: 1.84 µM [activator, partial curve]",
O=C1C(c2ccc(F)cc2)N(Cc2ccc3c(c2)OCO3)C(=O)CN1C1CCCCCC1 (configuration not stated),,inactive: -12.1%
COC(=O)CNc1ccc2c(c1)OCO2,"inconclusive: 16.4 µM [activator, partial curve, poor fit]",
COc1cc(Cl)c(C)cc1NC(=O)COC(=O)CCc1nc2ccccc2c(=O)[nH]1,,inactive: 16%
CCc1ccc(CNC(=O)c2ccc(OC3CCN(C(=O)COC)CC3)cc2)nc1,,inactive: -5.85%
Cc1ccc2sc(N(CCN(C)C)C(=O)c3ccc4ccccc4c3)nc2c1C,"inconclusive: 16.4 µM [inhibitor, partial curve, poor fit]",
O=C(O)c1cnc(-c2ccccc2)nc1Sc1ccc(Cl)cc1,"inconclusive: 6.51 µM [inhibitor, full curve]",
O=C(/C(=C/O)N=Nc1ccc(Cl)cc1)c1ccncc1,,inactive: -9.24%
C/C(=N\Nc1ccc(C)c(Cl)c1)c1cccnc1,"inconclusive: 23.1 µM [activator, partial curve]",
CCOC(=O)c1ccc(NS(=O)(=O)c2c(C)[nH]c(C)c2C(=O)N2CCCCC2)cc1,,inactive: 10.5%
c1ccc(Nc2cccc3c(Nc4ccccc4)cccc23)cc1,"inconclusive: 29.1 µM [activator, single point]",
Nc1cccc(C#Cc2ccc3c(c2)C(=O)/C(=C/c2ccsc2)O3)c1,,inactive: 15.7%

# Quoted at random: 3 entries already listed, in no set order.
SMILES,Potency,"activity change, negative = inhibition"
O=C(CN1C(=O)NC(Cc2c[nH]c3ccccc23)C1=O)Nc1ccc(F)c(F)c1F (configuration not stated),,inactive: 0.185%
Cc1cc(F)ccc1S(=O)(=O)N1CCCOC1CNC(=O)C(=O)NC1CCCC1 (configuration not stated),,inactive: -1.32%
O=C(/C(=C/O)N=Nc1ccc(Cl)cc1)c1ccncc1,,inactive: -9.24%

# Taken from the results shown (two entries):
SMILES,Potency,"activity change, negative = inhibition"
COc1cc(Cl)c(C)cc1NC(=O)COC(=O)CCc1nc2ccccc2c(=O)[nH]1,,inactive: 16%
CCc1ccc(CNC(=O)c2ccc(OC3CCN(C(=O)COC)CC3)cc2)nc1,,inactive: -5.85%
